In publication PMC4801207, “Characterisation of Signalling by the Endogenous GPER1 (GPR30) Receptor in an Embryonic Mouse Hippocampal Cell Line (mHippoE-18)” (PLoS ONE, 2016):
Where a name gives a salt, the structure may show the parent alone.

Biological target: T1, GPER1 (GPR30) (Mus musculus, UniProt Q8BMP4)
T1 construct: full-length endogenous receptor, native in mHippoE-18 immortalized embryonic mouse hippocampal cell line (CELLutions Biosystems); cells also express moderate ERalpha and ERbeta
T1 sequence (Q8BMP4 1-375): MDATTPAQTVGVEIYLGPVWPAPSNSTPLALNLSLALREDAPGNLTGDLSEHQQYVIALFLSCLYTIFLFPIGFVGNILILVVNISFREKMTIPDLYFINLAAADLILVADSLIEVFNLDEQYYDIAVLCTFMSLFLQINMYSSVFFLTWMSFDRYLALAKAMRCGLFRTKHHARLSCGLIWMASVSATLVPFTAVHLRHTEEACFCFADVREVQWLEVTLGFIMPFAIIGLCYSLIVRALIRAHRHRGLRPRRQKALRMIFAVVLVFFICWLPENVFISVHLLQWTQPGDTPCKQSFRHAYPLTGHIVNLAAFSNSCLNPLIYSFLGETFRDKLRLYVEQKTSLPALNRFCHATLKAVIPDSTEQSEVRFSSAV
Test: cAMP accumulation, radiometric PKA binding assay, mHippoE-18 cells
Type: cell-based
Details: agonist; potentiation of 10 μM forskolin-stimulated cAMP, 100 μM IBMX, 20 min; endogenous receptor, no antagonist

EC50: 640 pM
Structure (SMILES): CC/C(=C(\c1ccccc1)c1ccc(OCCN(C)C)cc1)c1ccccc1 [Tamoxifen, (2)-2-[4-(1,2-Diphenyl-1-butenyl)phenoxy]-N,N-dimethylethanamine citrate]
